For at least one entry, the source does not settle the construct or the ends of the probe.
System: GST-GCN4 3.12 (partial GCN4 including C-terminal DNA-binding region) (Saccharomyces cerevisiae)
Experiment: EMSA
Conditions: no blocking DNA; 7.5% polyacrylamide gel; purified recombinant protein; label: 32P-dATP

Chains of the proteins cited; added tags and fusions are not shown. Chains listed by the source or under a name are the forms on record and can include a tag or linker.
GST-GCN4 3.12 (partial GCN4 including C-terminal DNA-binding region) (Saccharomyces cerevisiae), one chain, as listed by the source: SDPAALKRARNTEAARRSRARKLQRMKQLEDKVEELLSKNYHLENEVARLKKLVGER

## CCACCTAGCGGATGACTCATTTTTTTTCTTAGCG / CGCTAAGAAAAAAAATGAGTC [GCN4 site gel-retardation probe]
  binding result: binds
